From PubChem BioAssay AID504648 (National Center for Advancing Translational Sciences (NCATS), 2011)
About 610 (0.16%) of roughly 390,000 compounds were called active. The shares of active, inactive and inconclusive entries below differ from those in the screen. The call rests on the fitted dose curve; in most records, active means well fitted inhibition curve with a large enough effect; inconclusive means small, poorly fitted or top-dose-only effect, or effect the other way, or another doubt; inactive means no such curve, though single readings can be large or run the other way. Potencies of inconclusive entries are doubtful fits and often do not repeat.
Potency means the concentration at half of the fitted maximal effect.

Assay: Nrf2 qHTS screen for inhibitors: counterscreen for cytotoxicity
Settings: A549 ARE-Fluc cells, CellTiter-Fluor viability, 18-24 h; series mostly up to 46 µM
Procedure, shortened: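 A549 ARE-Fluc cells in 5% FBS OPTI-MEM, 5000 cells/well, rested 2 h then exposed to compounds in concentration-response for 18-24 h at 37 °C. Viability by CellTiter-Fluor fluorescence (Ex 405/Em 525) after 30 min; luciferase luminescence (BugLite, 15 min, RT) read afterwards.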
In the case of `CC(C)=CCc1c2c(c(O)c3c(=O)c4c(oc13)-c1cc(O)c(O)cc1OC4C=C(C)C)C=CC(C)(C)O2` (stereo unspecified), the Potency was inconclusive: 16.4 µM [falling, partial curve, poor fit]. With `CN1CCN(C(=O)c2cc(COc3ccc(F)cc3Cl)on2)CC1c1ccccc1` (stereo unspecified) the Potency was inconclusive: 18.4 µM [falling, single point]. In the case of `CC(=O)Oc1ccc2c(=O)c(/C=N/c3cc(=O)[nH]c(=S)[nH]3)coc2c1`, the Potency was inconclusive: 7.31 µM [falling, partial curve, poor fit]. In the case of `O=S(=O)(Nc1ccccc1)c1ccc(-c2cnc(C3CC3)o2)cc1`, the Potency was inconclusive: 23.1 µM [falling, partial curve, poor fit]. With `CCN1CCN(S(=O)(=O)c2ccc(Cl)c(C(=O)NCc3ccco3)c2)CC1` the Potency was “inactive”. For `CC1CCN(Cc2c(C(=O)N/N=C/c3ccc(C(C)(C)C)cc3)nnn2-c2nonc2N)CC1`, the Potency was inconclusive: 20.6 µM [falling, single point]. In the case of `C/C(CCN1CCc2nc(-c3ccccc3)c(-c3ccccc3)cc2C1)=N\O[C@@H](C)c1cc(-c2c(C)cc(C)cc2C)no1`, the Potency was inconclusive: 2.31 µM [activator, full curve, poor fit]. With `CN(C)c1ccc2nc3ccc(=[N+](C)C)cc-3sc2c1` the Potency was inconclusive: 11.6 µM [falling, partial curve]. With `Cc1ccc(C(=O)NCCC2=CCCCC2)cc1S(=O)(=O)N1CCCCC1` the Potency was inconclusive: 18.4 µM [falling, single point]. In the case of `COc1cc(/C=C/C(=O)N2CCC=CC2=O)cc(OC)c1OC`, the Potency was inconclusive: 18.4 µM [falling, single point]. In the case of `COc1ccc(-c2cc(=O)n(-c3nc4ccccc4[nH]3)[nH]2)cc1`, the Potency was inconclusive: 29.1 µM [falling, single point]. For `Cc1cccc(C)c1NC(=O)C1CCCCN1C` (stereo unspecified), the Potency was inconclusive: 29.1 µM [falling, partial curve, poor fit]. In the case of `Cc1cc(C)c(C#N)c(SCC(=O)c2ccc(Cl)cc2Cl)n1`, the Potency was inconclusive: 6.51 µM [falling, partial curve]. In the case of `O=C(Nc1cccc(NC(=O)c2cccc(F)c2)c1)c1ccccc1`, the Potency was inconclusive: 25.9 µM [falling, single point]. With `CCCC(=O)NC(c1ccco1)c1cc(Cl)c2cccnc2c1O` (stereo unspecified) the Potency was inconclusive: 16.4 µM [falling, single point]. In the case of `COc1ccc2nc(NC(=O)C3CCN(S(=O)(=O)c4cccs4)CC3)sc2c1`, the Potency was inconclusive: 29.1 µM [falling, single point].
